Reference: PMC10711660, “An extended Tudor domain within Vreteno interconnects Gtsf1L and Ago3 for piRNA biogenesis in Bombyx mori” (The EMBO Journal, 2023)

T1: HA‐tagged BmGtsf1L (Bombyx mori)
T1 sequence: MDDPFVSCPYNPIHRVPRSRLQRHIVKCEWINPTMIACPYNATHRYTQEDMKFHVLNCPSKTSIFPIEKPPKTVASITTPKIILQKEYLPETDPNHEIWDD


Legend:
[1] = target: T1, HA‐tagged BmGtsf1L (Bombyx mori); assay: affinity purification with mass spectrometry; anti-HA immunoprecipitation from lysate of BmN4 cells transiently expressing HA-BmGtsf1L, HA-eGFP as control; dimethyl labelling, technical duplicates, threshold 2-fold enrichment
[2] = target: T1, HA‐tagged BmGtsf1L (Bombyx mori); assay: as above; remark: listed apart in the source

Row | Molecule | binding [1] | binding [2]
1 | endogenous BmSpn‐E (Bombyx mori (endogenous in BmN4)) | binds | –
2 | endogenous Siwi (protein, UniProt A8D8P8 1-899) MSEPRGRGRARGRAGRGGDGGGPAPRRPGEQAGPSQQSMPPGPRPQPPSGWGPQSSVPPVRAGVPTPTAQAGRASHRVTPTTHEHPGDIDVQQRMQKLELGPHSSGGGDASSVVGRGSRRGGGRVLPETISILRTRPEAVTSKKGTSGTPLDLLANYFTVETTPKWGLYQYHVDISPEEDSTGVRKALMRVHSKTLGGYLFDGTVLYTVNRLHPDPMELYSDRKTDNERMRILIKLTCEVSPGDYHYIQIFNIIIRKCFNLLKLQLMGRDYFDPEAKIDIPEFKLQIWPGYKTTINQYEDRLLLVTEIAHKVLRMDTVLQMLSEYAATKGNNYKKIFLEDVVGKIVMTDYNKRTYRVDDVAWNVSPKSTFKMRDENITYIEYYYKKYNLRIQDPGQPLLISRSKPREIRAGLPELIYLVPELCRQTGLSDEMRANFKLMRSLDVHTKIGPDKRIEKLNNFNRRFTSTPEVVEELATWSLKLSKELVKIKGRQLPPENIIQANNVKYPAGDTTEGWTRDMRSKHLLAIAQLNSWVVITPERQRRDTESFIDLIIKTGGGVGFRMRSPDLVVIRHDGPIEYANMCEEVIARKNPALILCVLARNYADRYEAIKKKCTVDRAVPTQVVCARNMSSKSAMSIATKVAIQINCKLGGSPWTVDIPLPSLMVVGYDVCHDTRSKEKSFGAFVATLDKQMTQYYSIVNAHTSGEELSSHMGFNIASAVKKFREKNGTYPARIFIYRDGVGDGQIPYVHSHEVAEIKKKLAEIYAGVEIKLAFIIVSKRINTRIFVQRGRSGENPRPGTVIDDVVTLPERYDFYLVSQNVREGTIAPTSYNVIEDTTGLNPDRIQRLTYKLTHLYFNCSSQVRVPSVCQYAHKLAFLAANSLHNQPHYSLNETLYFL | – | binds

Continued, values first:

Row | binding [1] | binding [2] | Molecule
3 | binds | – | endogenous BmQin (Bombyx mori (endogenous in BmN4))
4 | – | binds | endogenous BmAgo3 (protein, UniProt A9ZSZ2 1-926) MADPGKGRGRSLALLQALKKSQMMDSPSQSESQSPESTPEQSTAPSTIASATPSTSGVSIGGRGRAAALMLAKMQQKPGSTTPAIFVPPSSTSAPTAGTGRGFKLLQNLQASQKASSQIASSQVTSSAQSDIKDLTEKMSETSVSAQASSVAKNKYFREVKDTPPVVKKGETGVPIEVTCNYIYLNFKENIVFEYEVKFEPDQDYKHLRFKLLNEHIEHFKEKTFDGTTLYVPHELPDAVRNLVSTNPYDQSKVNVSIIFRRTRRLSEMIHIYNVMFKCIMKDLKLIRFGRQHYNEHAAIQIPQHKLEVWPGYVTAVDEYEGGLMLTLDSTHRVLRTQTVLSLIKEVVQTEGANWKRKMTDILIGASVMTTYNKKLFRVDTIDDKMSPRSTFEKTEKGETVQISFIDYYKKNYGIEIMDWDQPLLISRDTKRMPGSDTPTDFMICLIPELCQLTGLTDDQRSNFRLMKDVATYTRITPNQRHAAFKKYIESVMKNETAKSRLAGWGLSIAPETVNLTARTLPPETLYFGDNVRVPGKPNAEWNSEVTKHSVMQAVDIMRWVLLFTQRDKQVAMDFLSTLKRNCRPMGIMVSDAELVPLANDRTDTYVLALKKCITSSVQLVVAICSTKRDDRYAAIKKVCCADNPVPSQVINARTLMNTNKIRSITQKILLQLNCKLGGTLWSISIPFKSAMIVGIDSYHDPSRRNRSVCSFVASYNQSMTLWYSKVIFQEKGQEIVDGLKCCLVDALTHYLRSNGQLPDRIIIYRDGVGDGQLKLLQQYEIPQMKICFTILGSNYQPTLTYVVVQKRINTRIFLKSRDGYDNPNPGTVVDHCITRRDWYDFLIVSQKVTQGTVTPTHYVVVYDDSGITPDQCQRLTYKMCHLYYNWPGTVRVPAPCQYAHKLSYLVGQCVHAQPSDVLVDKLFFL

Like-named read-outs stand apart in the source and are kept apart here. These are yes or no findings as the source states them, for the method shown. In cells and extracts the contact can be indirect. A yes stands for co-enrichment or nearness to the bait. Other partners may have been found. Sequences can lack the tags named with a protein.
